6 molecules from paper PMC2860243 can be followed below.

Chains of the proteins cited; added tags and fusions are not shown.
UniProt P20263: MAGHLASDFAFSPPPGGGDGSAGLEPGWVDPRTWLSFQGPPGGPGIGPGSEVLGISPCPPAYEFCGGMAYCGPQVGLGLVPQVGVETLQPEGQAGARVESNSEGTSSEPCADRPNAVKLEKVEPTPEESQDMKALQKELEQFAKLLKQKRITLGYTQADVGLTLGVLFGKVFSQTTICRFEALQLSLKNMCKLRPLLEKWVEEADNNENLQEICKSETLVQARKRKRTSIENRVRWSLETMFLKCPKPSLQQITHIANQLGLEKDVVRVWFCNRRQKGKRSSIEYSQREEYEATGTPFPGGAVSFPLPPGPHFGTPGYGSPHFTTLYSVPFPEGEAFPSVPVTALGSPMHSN

The chains are these.
B1: Rbm14 (protein, UniProt Q8C2Q3 1-669)
chain: MKIFVGNVDGADTTPEELAALFAPYGTVMSCAVMKQFAFVHMRENAGAVRAIEALHGHELRPGRALVVEMSRPRPLNTWKIFVGNVSAACTSQELRSLFERRGRVIECDVVKDYAFVHMEKEADAKAAIAQLNGKEVKGKRINVELSTKGQKKGPALAIQSGDKTKKPGAGDTAFPGTGGFSATFDYQQAFGNSTGGFDGQARQPTPPFFGRDRSPLRRSPPRASYVAPLTAQPATYRAQPSVSLGAAYRAQPSASLGVGYRTQPMAAQAASYRAQPSVSLGAPYRGQLASPSSQSAAASSLGPYGGVQPSASALSTYGGQAAAASSLNSYGAQGSSLASYGNQPSSYGAQAASSYGVRAAASSYNTQGAASSLGSYGAQAASYGAQSAASSLAYGAQAASYSAQPSASYSAQSAPYAAQQAASYSSQPAAYVAQPATAAAYASQPAAYAAQATTPMAGSYGAQPVVQTQLNSYGAQASIGLSGSYGAQSAAAATGSYGAAAAYGAQPSATLAAPYRTQSSASLAASYAAQQHPQAAASYRGQPGSAYDGTGQPSAAYLSMSQGAVANANSTPPPYERTRLSPPRASYDDPYKKAVAMSKRYGSDRRLAELSDYRRLSESQLSFRRSPTKSSLDYRRLPDAHSDYARYSGSYNDYLRAAQMHSGYQRRM
B2: Emsy (protein, UniProt Q8BMB0 1-1264)
chain: MPVVWPTLLDLSRDECKRILRKLELEAYAGVISALRAQGDLTKEKKDLLGELSKVLSISTERHRAEVRRAVNDERLTTIAHKMNLSLYLGERPSYSMSGPNSSSEWSIEGRRLVPLMPRLVPQTAFTVTANAVANAAVQHNASLPVPAETASKDGVSCSDEDEKPRKRRRTNSSSSSPVVLKEVPKAVVPVSKTITVPVSGSPKMSNIMQSIANSLPPHMSPVKITFTKPSTQTTNTTTQKVIIVTTSPSSTFVPNILSKSHNYAAVTKLVPTSVIASTTQKPPVVITASQASLVTSSSNGNSSSTSSPISSTVAVTTVVSSTPSVVMSTVAQGVSTSAIKVASTRLPSPKSLVSGPTQILAQFPKQHQQSPKQQLQQVQQQTQQPVAQPSSVSQQQQPQQSALPPGIKPTIQIKQESGVKIITQQVQPSKILPKPVTATLPTSSNSPIMVVSSNGAIMTTKLVTTPTGTQATYTRPTVSPSLGRVATTPGAATYVKTTSGSIITVVPKSLATLGGKIISSNIVSGTTTKITTIPMTSKPNVIVVQKTTGKGTTIQGLPGKNVVTTLLNAGGEKTLQTVPAGAKPAIITATRPITKMIVTQPKGIGSAVQPAAKIIPTKIVYGQQGKTQVLIKPKPVTFQATVVSEQTRQLVTETLQQASRVADASNSSAQEGKEEPQGYTDSSSSSTESSQSSQDSQPVVHVIASRRQDWSEHEIAMETSPTIIYQDVSSESQSATSTIKALLELQQTTVKEKLESKPRQPTIDLSQMAVPIQMTQEKRHSPESPSIAVVESELVAEYITTVSHRSQPQQPSQPQRTLLQHVAQSQTATQTSVVVKSIPASSPGAITHIMQQALSSHTAFTKHSEELGTEEGEVEEMDTLDPQTGLFYRSALTQSQSTKQQKLSQPQLEQTQLQVKTLQCFQTKQKQTIHLQADQLQHKLTQMPQLSIRHQKLNPLQQEQAQPKPDAQHTQHTVVAKDRQLPTLMAQPPQTVVQVLAVKTTQQLPKLQQAPNQPKIYVQPQTPQSQMALPSSEKQPASQVEQPIITQGSSVTKITFEGRQPPTVTKITGGSSVPKLTSPVTSISPIQASEKTAVSDILQMSLMEAQIDTNVEHMVVDPPKKALATNVLTGEAGALPSTHVVVAGMTKCRESCSSPSAVGPPLTTRKIEAAGVPTTGQFMRIQNVGQKKAEESPTEIIIQAIPQYAIPCHSSSNVVVEPSGLLELNNFTSQQLDDDETAMEQDIDSSTEDGTEPSPSQSAVERS
B3: Ubp1 (protein, UniProt Q811S7 1-540)
chain: MAWVLSMDEVIESGLVHDFDSSLSGIGQELGAGAYSMSDVLALPIFKQEDSSLSLEDEAKHPPFQYVMCAATSPAVKLHDETLTYLNQGQSYEIRMLDNRKMGDMPELSGKLVKSIIRVVFHDRRLQYTEHQQLEGWKWNRPGDRLLDLDIPMSVGIIDTRTNPSQLNAVEFLWDPAKRTSAFIQVHCISTEFTPRKHGGEKGVPFRIQVDTFKQNENGEYTDHLHSASCQIKVFKPKGADRKQKNDREKMEKRTAHEKEKYQPSYDTTILTEMRLEPIIEDAVEHEQKKSSKRTLPADYGDSLAKRGSCSPWPDTPTAYVNNSPSPAPTFTSSQPSTCSVPDSNSSSPNHQGDGAAQASGEQIQPSATTQETQQWLLKNRFSSYTRLFSNFSGADLLKLTKEDLVQICGAADGIRLYNSLKSRSVRPRLTIYVCQEQPSSTALQGQPQAAGSGGESGGGTPSVYHAIYLEEMVASEVARKLASVFNIPFHQINQVYRQGPTGIHILVSDQMVQNFQDETCFLFSTVKAENNDGIHIILK
B4: Tcfcp2 (protein, UniProt Q9ERA0 1-502)
chain: MAWALKLPLADEVIESGLVQDFDASLSGIGQELGAGAYSMSDVLALPIFKQEESSLPPDNENEILPFQYVLCAATSPAVKLHDETLTYLNQGQSYEIRMLDNRKLGELPELNGKLVKSIFRVVFHDRRLQYTEHQQLEGWRWNRPGDRILDIDIPMSVGVIDPRANPTQLNTVEFLWDPSKRTSVFIQVHCISTEFTMRKHGGEKGVPFRVQIDTFKENGNGEYTEHLHSASCQIKVFKPKGADRKQKIDREKMEKRTPHEKEKYQPSYETTILTECSPWPEITYVNNSPSPGFNSSHSSFSLGEGNGSPNHQPEPPPPVTDNLLPTTTPQEAQQWLHRNRFSTFTRLFTNFSGADLLKLTRDDVIQICGPADGIRLFNALKGRMVRPRLTIYVCQESLQLREQQPQPQPQPQKQEDGDSNGTFFVYHAIYLEELTAVELTEKIAQLFSISPHQISQIYKQGPTGIHVVISDEMVQNFQEEACFILDTMEAETSDSYHVILK
B5: Grhl2 (protein, UniProt Q8K5C0 1-625)
chain: MSQESDNNKRLVALVPMPSDPPFNTRRAYTSEDEAWKSYLENPLTAATKAMMSINGDEDSAAALGLLYDYYKVPRDKRLLSVSKASDSQEDQDKRNCLGTSEAQINLSGGENRVQVLKTVPVNLCLSQDHMENSKREQYSVSITESSAVIPVSGITVVKAEDFTPVFMAPPVHYPRADSEEQRVVIFEQTQYDLPSIASHSSYLKDDQRSTPDSTYSESFKDGASEKFRSTSVGADEYTYDQTGSGTFQYTLEATKSLRQKQGEGPMTYLNKGQFYAITLSETGDNKCFRHPISKVRSVVMVVFSEDKNRDEQLKYWKYWHSRQHTAKQRVLDIADYKESFNTIGNIEEIAYNAVSFTWDVNEEAKIFITVNCLSTDFSSQKGVKGLPLMIQIDTYSYNNRSNKPIHRAYCQIKVFCDKGAERKIRDEERKQNRKKGKGQASQAQCNNSSDGKMAAIPLQKKSDITYFKTMPDLHSQPVLFIPDVHFANLQRTGQVYYNTDDEREGSSVLVKRMFRPMEEEFGPTPSKQIKEENVKRVLLYVRKENDDVFDALMLKSPTVKGLMEALSEKYGLPVEKITKLYKKSKKGILVNMDDNIIEHYSNEDTFILNMESMVEGFKITLMEI
B6: lig3 (protein, UniProt P97386 1-1015)
chain: MTLAFKILFPRNLCALGRKELCLFPEQNRWAAISQFSQWSETNLLGGCCLLQRRKPVLALQRGHLRPRATHLTFWPGSHVGLCTGPCAMAEQRFCVDYAKRGTAGCKKCKEKIVKGVCRIGKVVPNPFSESGGDMKEWYHIKCMFEKLERARATTKKIEDLTELEGWEELEDNEKEQISQHIADLSSKAAATPKKKAAVQAKLTTTGQVTSPVKGASFITSTNPRKFSGFSAAKPNNSEQAPSSPAPGTSLSASKCDPKHKDCLLREFRKLCAMVAENPSYNTKTQIIHDFLQKGSTGGFSDGFHGDVYLTVKLLLPGVIKSVYNLNDKQIVKLFSRIFNCNPDDMARDLEQGDVSETIRIFFEQSKSFPPAAKSLLTIQEVDAFLLHLSKLTKEDEQQQALQDIASRCTANDLKCIIRLIKHDLKMNSGAKHVLDALDPNAYEAFKASRNLQDVVERVLHNEQEVEKDPGRRRALRVQASLMTPVQPMLAEACKSIEYAMKKCPNGMFSEIKYDGERVQVHKKGDHFSYFSRSLKPVLPHKVAHFKDYIPKAFPGGQSMILDSEVLLIDNNTGKPLPFGTLGVHKKAAFQDANVCLFVFDCIYFNDVSLMDRPLCERRKFLHDNMVEIRNRIMFSEMKQVTKASDLADMINRVIREGLEGLVLKDVKGTYEPGKRHWLKVKKDYLNEGAMADTADLVVLGAFYGQGSKGGMMSIFLMGCYDPDSQKWCTVTKCAGGHDDATLARLQKELVMVKISKDPSKIPSWLKINKIYYPDFIVPDPKKAAVWEITGAEFSRSEAHTADGISIRFPRCTRIRDDKDWKSATNLPQLKELYQLSKDKADFAVVAGDEASPTTGGSSGENEGTAGSAGPCKGPPSKSSASAKTTEQKLNSPSSRGGIKPIPKHSPMKPGEKLAVKSSPVKVGMKRKATDETPCLKKVLLDVFTGVRLYLPPSTPDFKRLKRYFVAFDGDLVQEFDMGSATHVLGNREKNTDAQLVSSEWIWACIRKRRLIAPC

No constants are given. Whether binding was seen depends on the method and setting. In cells and extracts the contact can be indirect. A yes stands for co-enrichment or nearness to the bait. Other partners may have been found. For some of these results: Tags and fused reporters may be left off the sequences shown.

For one assay, the target named is FLAG-Oct4 (F-Oct4) (mouse) (UniProt P20263). Put plainly: affinity purification with mass spectrometry; FLAG-affinity purification of F-Oct4 from 1.5 ml ESC nuclear extract on anti-FLAG M2 agarose, buffer C-100 (20 mM HEPES pH 7.6, 100 mM KCl), washes with 0.02% NP-40, Benzonase, 4°C, FLAG peptide elution; three purifications; control ZHBTc4 extract.
On to B1, for which the binding result is “binds”.

As for B2, the binding result is “binds”.

Take B3: the binding entry is “binds”.

The target of the next assay is T1, FLAG-tagged Tcfcp2l1 (F-Tcfcp2l1) (mouse) (UniProt Q3UNW5).
T1 sequence: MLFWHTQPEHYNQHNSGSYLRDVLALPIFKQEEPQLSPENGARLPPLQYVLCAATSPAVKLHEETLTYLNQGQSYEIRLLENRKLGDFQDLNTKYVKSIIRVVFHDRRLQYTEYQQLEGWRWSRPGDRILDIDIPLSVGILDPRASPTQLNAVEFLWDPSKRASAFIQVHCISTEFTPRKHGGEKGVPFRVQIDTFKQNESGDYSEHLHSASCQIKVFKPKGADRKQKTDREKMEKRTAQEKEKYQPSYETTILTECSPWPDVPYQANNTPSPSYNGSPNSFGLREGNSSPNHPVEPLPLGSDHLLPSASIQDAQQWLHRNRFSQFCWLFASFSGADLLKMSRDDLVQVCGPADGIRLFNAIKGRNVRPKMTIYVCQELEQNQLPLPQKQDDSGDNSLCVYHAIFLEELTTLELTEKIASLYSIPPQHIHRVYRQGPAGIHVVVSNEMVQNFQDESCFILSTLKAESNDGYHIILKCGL
Put plainly: affinity purification with mass spectrometry; FLAG-affinity purification of F-Sall4, F-Dax1, F-Tcfcp2l1 or F-Esrrb from nuclear extract of ZHBTc4-derived ESC clones, buffer C-100, Benzonase, FLAG peptide elution; two purifications each without and with doxycycline (16 hr, Oct4 removed); hits present in both -Dox purifications.
With B4, the binding entry is listed as “binds”.

As for B5, the binding entry is listed as “binds”.

On to B2, for which the binding entry is given as “binds”.

For the molecule B3, the binding entry was “binds”.

Consider B6, for which the binding entry was “binds”.

The target of another assay is Oct4 (Pou5f1) (mouse (endogenous in 46C ESCs)) (UniProt P20263). Put plainly: affinity purification with mass spectrometry; immunoprecipitation of endogenous Oct4 (antibody sc-8628 cross-linked to protein G Sepharose) from 1 ml 46C ESC nuclear extract, Benzonase, washes with C-100*, 4°C, boiled in SDS-loading dye; control goat IgG.
Turning to B1, the binding result is reported as “binds”.

With B3, the binding entry was “binds”.
